PubChem BioAssay AID1224830 – NIAID – 2016

Assay: 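Genes whose knock-down alters the TNF-alpha reporter response to LPS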 (primary screen)
Cells: human THP-1 monocytic leukaemia cells, TNF dual-luciferase reporter clone, PMA-differentiated to macrophage-like cells
Reagent: siRNA pool against human genes, 50 nM
Duration: LPS for 4 h, given about 3 days after siRNA transfection
Treatment: bacterial LPS (TLR4 ligand), 10 ng/ml
Measured: 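TNF firefly reporter luminescence divided by renilla, normalised to the plate median, then turned into a robust z-score for each replicate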
Reading the numbers: TNF reporter robust z-score: higher = stronger TNF reporter response to LPS
Rule for the call: 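a well is active when its z-score exceeds 2.8 or falls below -1.5; control wells carry no call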
Here is one part, drawn at random, of about 18,000 deposited reagents. Over the whole deposit, about 2,900 (16%) were called active. 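Calls are made per well; low scores hint the gene aids the LPS response, high scores that it dampens it.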 Repeated entries: four replicate wells of each siRNA pool. No sequences are given here.

PPDPFL: TNF reporter robust z-score = 0.1; activity call = inactive
PPDPFL: TNF reporter robust z-score = 0.28; activity call = inactive
PPDPFL: TNF reporter robust z-score = 0.13; activity call = inactive
PPDPFL: TNF reporter robust z-score = 0.76; activity call = inactive
MIS18A: TNF reporter robust z-score = -0.87; activity call = inactive
MIS18A: TNF reporter robust z-score = 0.58; activity call = inactive
MIS18A: TNF reporter robust z-score = 0.03; activity call = inactive
MIS18A: TNF reporter robust z-score = 0.94; activity call = inactive
ATP2B2: TNF reporter robust z-score = 0.09; activity call = inactive
ATP2B2: TNF reporter robust z-score = -0.05; activity call = inactive
ATP2B2: TNF reporter robust z-score = 0.57; activity call = inactive
ATP2B2: TNF reporter robust z-score = 2.35; activity call = inactive
SFI1: TNF reporter robust z-score = 0.58; activity call = inactive
SFI1: TNF reporter robust z-score = -0.28; activity call = inactive
SFI1: TNF reporter robust z-score = 0.62; activity call = inactive
SFI1: TNF reporter robust z-score = 0.72; activity call = inactive
CSF2RB: TNF reporter robust z-score = -0.63; activity call = inactive
CSF2RB: TNF reporter robust z-score = -0.53; activity call = inactive
CSF2RB: TNF reporter robust z-score = -0.52; activity call = inactive
ADGRB3: TNF reporter robust z-score = -1.52; activity call = active
ADGRB3: TNF reporter robust z-score = -1.37; activity call = inactive
ADGRB3: TNF reporter robust z-score = -1.38; activity call = inactive
ADGRB3: TNF reporter robust z-score = -1.3; activity call = inactive
AKR1C1: TNF reporter robust z-score = 0.54; activity call = inactive
AKR1C1: TNF reporter robust z-score = -0.61; activity call = inactive
AKR1C1: TNF reporter robust z-score = -0.45; activity call = inactive
AKR1C1: TNF reporter robust z-score = -0.02; activity call = inactive
OR4L1: TNF reporter robust z-score = -0.31; activity call = inactive
OR4L1: TNF reporter robust z-score = 0.98; activity call = inactive
OR4L1: TNF reporter robust z-score = 1.44; activity call = inactive
OR4L1: TNF reporter robust z-score = 0.52; activity call = inactive
GPR156: TNF reporter robust z-score = 0.34; activity call = inactive
GPR156: TNF reporter robust z-score = 1.49; activity call = inactive
GPR156: TNF reporter robust z-score = 1.42; activity call = inactive
GPR156: TNF reporter robust z-score = 2.89; activity call = active

Records above called active, once more:
ADGRB3: TNF reporter robust z-score = -1.52; activity call = active
GPR156: TNF reporter robust z-score = 2.89; activity call = active
